Binding data for eight molecules are collected here from patent publication US20050013820A1 (REGENTS OF THE UNIVERSITY OF MICHIGAN, published 2005).

Assay [1] deals with T1, recombinant human calreticulin (human, UniProt P27797 18-417).
T1 construct: Expressed in E. coli as a GST fusion; also called Crt; purified recombinant calreticulin
T1 sequence: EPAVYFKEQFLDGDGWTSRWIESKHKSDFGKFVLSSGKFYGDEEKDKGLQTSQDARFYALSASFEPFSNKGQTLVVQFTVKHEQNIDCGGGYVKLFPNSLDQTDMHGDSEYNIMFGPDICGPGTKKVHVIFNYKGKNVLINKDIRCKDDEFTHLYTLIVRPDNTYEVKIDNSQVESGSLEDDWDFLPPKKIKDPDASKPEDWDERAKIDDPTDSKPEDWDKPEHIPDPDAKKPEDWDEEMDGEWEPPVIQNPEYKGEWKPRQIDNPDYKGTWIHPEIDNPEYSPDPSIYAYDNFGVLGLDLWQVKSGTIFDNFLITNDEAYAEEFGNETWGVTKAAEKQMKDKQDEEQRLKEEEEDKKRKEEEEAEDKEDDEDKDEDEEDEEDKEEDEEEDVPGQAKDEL
The experiment in a line: SPR (Biacore), peptide immobilized on CM5, recombinant calreticulin in the flow phase (FIG. 13B). On the technique in general: In SPR one partner is held on a chip, and binding of the other changes the refractive index at the surface.

The target in assay [2] is T1, recombinant human calreticulin. Nature of the assay: SPR (Biacore), control competition with QKRAE.
The target is the same in assay [3]. Nature of the assay: figure legend FIG. 13B: surface plasmon resonance profiles.
For assay [4] the target is unchanged. Nature of the assay: figure legend FIG. 13A: peptide affinity chromatography, immunoblot. For orientation: Immunoblotting shows a protein as a band on a membrane.
The target is the same in assay [5]. Nature of the assay: peptide-Sepharose affinity column, immunoblot of eluate (FIG. 13A).
The target is the same in assay [6]. Nature of the assay: SPR (Biacore), calreticulin immobilized on CM5 (FIG. 15 legend).
The target is the same in assay [7]. The experiment in a line: SPR (Biacore 2000), calreticulin immobilized on CM5.
The target is the same in assay [8]. The experiment in a line: SPR competition on immobilized calreticulin; competitors 65-78*0401 and 65-78*0404; IC50 number not given.
Assay [9] shares this target. The experiment in a line: SPR competition (FIG. 16 legend).
Assay [10] shares this target. Nature of the assay: restated in Example 14 (SPR results of Examples 12-13).

Results are given in words; binding and its absence hold for the method and conditions named. Some binding calls cover weakened binding; strength is not graded here.

As for KDLLEQKRAAVDTYC [peptide 65-79*0401], the binding entry in assay [1], in assay [2] and in assay [3] was “binds” throughout.
For the molecule KDLLEQRRAAVDTY [peptide 65-78*0404], the binding result in assay [4] and in assay [5] was “binds” each time.
As for QKRAA [pentapeptide QKRAA], in assay [6], the binding result was “binds”.
Regarding KDLLEQRRAAVDTYC [peptide 65-79*0404], the binding entry in assay [1] and in assay [3] was “binds” throughout.
Regarding QKCLA [pentapeptide QKCLA], in [6], the binding result was “binds”.
The same measure, in the same setting: in the case of QRRAA [pentapeptide QRRAA] it was “binds”.
For DKCLA [pentapeptide DKCLA], the binding result in [7], in [8], in assay [9] and in assay [10] was “binds” throughout.
As to QKRLA [pentapeptide QKRLA], the binding entry in assay [6] is reported as “binds”.
